Data as given in publication PMC6365456.
No constants are given. Whether binding was seen depends on the method and setting. Binding seen in cells or lysates may run through a third protein. Some binding calls cover weakened binding; strength is not graded here.

Sequences of proteins named here, by UniProt entry; tags and fusion partners are left off. A change or cut given only in a name is not applied to a line headed by its entry.
UniProt Q04206: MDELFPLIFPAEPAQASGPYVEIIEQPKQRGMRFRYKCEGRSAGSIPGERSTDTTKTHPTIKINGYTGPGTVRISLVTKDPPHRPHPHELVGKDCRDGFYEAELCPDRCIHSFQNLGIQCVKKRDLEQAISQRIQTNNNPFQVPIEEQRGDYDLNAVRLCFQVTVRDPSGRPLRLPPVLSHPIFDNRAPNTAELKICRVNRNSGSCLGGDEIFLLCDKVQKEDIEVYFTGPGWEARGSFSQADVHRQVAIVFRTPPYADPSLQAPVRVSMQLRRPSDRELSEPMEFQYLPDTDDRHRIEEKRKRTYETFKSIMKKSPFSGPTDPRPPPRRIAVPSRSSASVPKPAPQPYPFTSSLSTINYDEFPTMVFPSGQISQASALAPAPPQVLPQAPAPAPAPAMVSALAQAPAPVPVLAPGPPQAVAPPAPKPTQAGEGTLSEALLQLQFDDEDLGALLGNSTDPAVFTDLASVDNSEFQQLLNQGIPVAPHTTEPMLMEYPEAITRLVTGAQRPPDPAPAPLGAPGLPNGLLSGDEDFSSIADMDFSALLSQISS
UniProt O14543: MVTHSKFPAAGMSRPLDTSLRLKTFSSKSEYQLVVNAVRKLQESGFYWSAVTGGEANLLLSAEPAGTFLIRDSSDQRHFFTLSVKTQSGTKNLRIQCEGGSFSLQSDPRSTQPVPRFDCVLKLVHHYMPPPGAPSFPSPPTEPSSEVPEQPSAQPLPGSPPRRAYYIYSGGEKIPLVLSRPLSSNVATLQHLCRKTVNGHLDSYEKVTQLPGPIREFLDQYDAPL

Biological target: p65 (subunit of NF-κB complex) (human (endogenous in HEK-293T)) (UniProt Q04206)
Experiment: co-IP; HEK-293T cell lysate (untransfected, or transfected with Myc-SOCS3 mutants) incubated with anti-p65 conjugated agarose resin (Pierce Direct IP kit) overnight at 4°C; eluted proteins analysed by western blotting

Substance | binding
Myc-SOCS3 (34–185 aa) mutant (from UniProt O14543 34-185) (domain or fragment) | binds
Myc-SOCS3 (129–225 aa) mutant lacking SH2 domain (from UniProt O14543 129-225) (domain or fragment) | no binding
Suppressor of Cytokine Signaling 3 (SOCS3) (from UniProt O14543 1-225) | binds
